Results on two molecules are retold here after paper PMC3617406 (Molecular pharmaceutics, 2013).

One test concerns the target T1, human NTCP (Homo sapiens, UniProt Q14973).
T1 sequence (Q14973 1-349): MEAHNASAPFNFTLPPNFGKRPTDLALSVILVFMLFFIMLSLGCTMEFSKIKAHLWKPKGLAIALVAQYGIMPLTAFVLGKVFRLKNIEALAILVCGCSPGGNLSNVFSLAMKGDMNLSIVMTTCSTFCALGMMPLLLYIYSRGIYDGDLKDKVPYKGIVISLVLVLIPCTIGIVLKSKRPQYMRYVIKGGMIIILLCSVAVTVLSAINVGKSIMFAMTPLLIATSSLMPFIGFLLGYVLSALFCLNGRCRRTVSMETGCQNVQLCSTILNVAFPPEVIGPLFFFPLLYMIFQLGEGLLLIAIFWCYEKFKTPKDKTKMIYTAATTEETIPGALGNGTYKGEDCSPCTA
Type of test: cell-based. Conditions: for potency estimated from few doses: read-out: Estimated Ki for NTCP.

The target in the next test is T2, human ASBT (Homo sapiens, UniProt Q12908).
T2 sequence (Q12908 1-348): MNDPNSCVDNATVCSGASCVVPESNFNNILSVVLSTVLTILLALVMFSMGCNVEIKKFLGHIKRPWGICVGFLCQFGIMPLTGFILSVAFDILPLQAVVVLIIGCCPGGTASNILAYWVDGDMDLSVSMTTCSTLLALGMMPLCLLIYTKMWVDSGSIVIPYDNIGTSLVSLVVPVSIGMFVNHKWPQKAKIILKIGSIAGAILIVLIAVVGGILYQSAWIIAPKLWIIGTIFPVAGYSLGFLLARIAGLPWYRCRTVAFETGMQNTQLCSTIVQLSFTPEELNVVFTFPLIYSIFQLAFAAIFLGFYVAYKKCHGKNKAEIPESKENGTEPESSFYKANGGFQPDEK
It counts as cell-based. The following applies: for ASBT inhibitor or non-inhibitor: inhibitor = Ki below 300 μM; for potency estimated from few doses: read-out: Estimated Ki for ASBT.

Take `Clc1ccc(CSC(Cn2ccnc2)c2ccc(Cl)cc2Cl)cc1` (centres unmarked) [Sulconazole]: at human NTCP (inhibitor = Ki less than 300 μM), the “NTCP inhibitor or non-inhibitor” value was “NTCP inhibitors”. In addition, at human NTCP, the potency estimated from few doses was 112 ± 115 µM. For the same molecule, on human ASBT, the “ASBT inhibitor or non-inhibitor” value is on record as “ASBT inhibitors” and the potency estimated from few doses was 29.4 ± 0.6 µM.

For `Clc1ccc(CO/N=C(\Cn2ccnc2)c2ccc(Cl)cc2Cl)c(Cl)c1` [Oxiconazole], on human NTCP, the potency estimated from few doses is > 50 µM. In addition, on human ASBT (Ki values of Table 4 and 5), the “fold more potent ASBT inhibition than NTCP inhibition” value is reported as ≥ 10 fold. Also, at human ASBT, the “ASBT inhibitor or non-inhibitor” value is on record as “ASBT inhibitors” and the potency estimated from few doses was 94.7 ± 38 µM.
